Drawing on US20120329679A1, this text covers binding for one molecule.

The target in test [1] is myc tagged GR2-EGFR-TM (adapter GR2 fused with the transmembrane domain of human epidermal growth factor receptor), expressed on COS 6 cells from helper vector pMAG2 (human) (UniProt P00533). The test can be described thus: two-colour immunofluorescence on COS 6 cells co-transfected with pMAG10 and pMAG2 (FIG. 9).
Test [2] shares this target. The test can be described thus: two-colour immunofluorescence (anti-HA, anti-myc) on COS 6 cells co-transfected with pMAG10 and pMAG2.

These are yes or no findings as the source states them, for the method shown. Some binding calls cover weakened binding; strength is not graded here. Where a sequence is shown, tags or fusion partners need not be part of it.

B1: HA tagged anti-VEGF scFv-GR1 fusion protein expressed in COS 6 cells from mammalian expression vector pMAG10 (scFv)
scFv: SSEVQLVQSGGGVVQPGGSLRLSCAASGYTFTNYGMNWIRQAPGKGLEWVGWINTYTGEPTYAADFKRRVTFSLDTSKSTAYLQLNSLRAEDTAVYYCAKYPYYYGRSHWYFDVWGQGTLVTVSSGGGGSGGGGSGGGGSDIVMTQSPSTLSASPGERATITCSASQSISTYLAWYQQKPGQAPQVLIYAASNLASGVPNRFSGSRSGTDFTLTISSLQPEDFAVYYCQQYYSTPWTFGGGTKVEIKAAAYPYDVPDYAGGHHHHHHVDGSGGGEEKSRLLEKENRELEKIIAEKEERVSELRHQLQSVGGC
Regarding B1, the binding entry in test [1] and in test [2] was “binds” throughout.
